Measured values taken from article PMC10739811.

Target: Flag-tagged human BACH1 lacking the BTB domain (BACH1^ΔBTB) (human)
Assay: co-IP; HEK293T cells co-transfected with PTP1B-HA or IR-β-GFP and Flag-tagged BACH1 (full or lacking the BTB domain); precipitated with anti-Flag, blot with anti-HA or anti-GFP

B1: human PTP1B-HA (enzyme, UniProt P18031 1-435)
chain: MEMEKEFEQIDKSGSWAAIYQDIRHEASDFPCRVAKLPKNKNRNRYRDVSPFDHSRIKLHQEDNDYINASLIKMEEAQRSYILTQGPLPNTCGHFWEMVWEQKSRGVVMLNRVMEKGSLKCAQYWPQKEEKEMIFEDTNLKLTLISEDIKSYYTVRQLELENLTTQETREILHFHYTTWPDFGVPESPASFLNFLFKVRESGSLSPEHGPVVVHCSAGIGRSGTFCLADTCLLLMDKRKDPSSVDIKKVLLEMRKFRMGLIQTADQLRFSYLAVIEGAKFIMGDSSVQDQWKELSHEDLEPPPEHIPPPPRPPKRILEPHNGKCREFFPNHQWVKEETQEDKDCPIKEEKGSPLNAAPYGIESMSQDTEVRSRVVGGSLRGAQAASPAKGEPSLPEKDEDHALSYWKPFLVNMCVATVLTAGAYLCYRFLFNSNT
For B1, the binding was “no binding”.

No constants are given. Whether binding was seen depends on the method and setting. In cells and extracts the contact can be indirect. Sequences can lack the tags named with a protein.
